Measured values reported in publication PMC10163288.
The other results are listed elsewhere or left out.

B1: il2ra_site1_2b5i_sap_11_mot_HHH_b2_01648_000000060_0001_42_56_H_._HHH_b2_08125_0001_0000200014_0000001_0_0001_af2pred_dldesign_0_af2pred (protein)
chain: SSSSDEAWEEIDRLFSEAERLRRAGKREEARELLEEALAVAEANNDAKAVAELRRLLELLSSSSS
B2: il2ra_site2_2erj_sap_22_mot_HHH_b2_07720_000000231_0001_21_37_H_._HHH_b1_02978_0001_0000500004_0000001_0_0001 (protein)
chain: SSSSSSHEEMAELIEELFEEAREAGNEAALRLVLAFLRLSIEDTGDPRLEELLEELERLLSSSSS
B3: il2ra_site1_2b5i_normal_mot_HHH_b1_02271_000000068_0001_1_16_H_._HHH_eva_0455_0001_0000100005_0000001_0_af2pred_dldesign_0_af2pred (protein)
chain: SSSSSSSDRRKILEEADKAFKAGDVEKLEELLKKAKAAGDEKTARAIERAIEVAREESSSSSSSS
B4: il2ra_site2_3nfp_normal_mot_HHH_b2_07840_000000026_0001_18_34_H_._HHH_b1_00954_0001_0000200021_0000001_0 (protein)
chain: SSSSDLEERLRELLEELEELVKEGDEERFREVAREVIQLVYENNDHEAFAKLADLLYLIESSSSS
B5: il2ra_site1_1z92_sap_16_mot_HHH_b1_07660_af2_000000114_0001_40_57_H_._HHH_b1_07492_0001_0000100006_0000001_0_0001_af2pred_0001_af2pred_1 (protein)
chain: NDHTRELIKEAIEKNDEELLKEFLELAERDSGDPRLAKQYLRILIKKLLGDPEKAKEIVRRIEER
B6: il2ra_site2_2erj_sap_24_mot_HHH_b2_02257_000000217_0001_21_37_H_._HHH_b1_05454_0001_0001000012_0000001_0_0001 (protein)
chain: SSSSSEEEVEELIRKAEELLKEGDEAEALHVLAEAALLALELNDPELFRLISELFEEVYRSSSSS
B7: il2ra_site1_1z92_sap_10_mot_HHH_b2_05172_af2_000000284_0001_1_18_H_._HHH_b1_03374_0002_0000400040_0000001_0_0001 (protein)
chain: DAREQMERDVELVAEHANVPSFSVEVENGKIEVTLEGTDWAVETAARILERLAKRAGVDVEVEVR
B8: il2ra_site1_1z92_normal_mot_HHH_b2_06308_af2_000000104_0001_1_20_H_._1120a227123fe120892103896c8fe6e4_0001_1_0001_0000100007_0000001_0_af2pred_0001_af2pred_1 (protein)
chain: DAHEVAERAAELVKEGNPEEAERLLEELVRKTGDPALKFLLEQVEKLLERGNLESVHKLLHAAAR
B9: il2ra_site2_2erj_normal_mot_64bd02d26d05ce9f1a62b616cea0b888_0001_af2_000000037_0001_36_50_H_._HHH_b1_04625_0001_0000100006_0000001_0 (protein)
chain: SSSSDEELRYAFEAAARLMHLISNGNPEEAQELVEEARRELERLGNPELAEALEELFEFALSSSS
B10: il2ra_site2_3nfp_normal_mot_HHH_b2_03978_000000149_0001_1_20_H_._HHH_b2_07914_0001_0000100004_0000001_0 (protein)
chain: SSSSDEEELEERVEELLEEAKKIEDPEEVAELLLEASALAYRYNDHELFAKIVEVFHRLNSSSSS
B11: il2ra_site2_2erj_normal_mot_6d5f7cbc25fed124e3eb7f952334b9cf_0001_af2_000000048_0001_1_13_H_._HHH_b1_04677_0001_0000500020_0000001_0 (protein)
chain: SSSSSDEEIRELFEEVLELFKRAESREEARELLHELLREAEELGDEALVRVIRYLLKSISSSSSS
B12: il2ra_site1_1z92_sap_26_mot_HHH_b2_02540_000000162_0001_1_16_H_._HHH_b2_07770_0001_0000300023_0000001_0_0001_af2pred_0001_af2pred_1 (protein)
chain: SEEEEIIQLLAEVAGLPPEAVERLVEQVRRLANVPPKDALRLTAKAALQITGDPRVEEALELAEK
B13: il2ra_site1_2b5i_sap_17_mot_HHH_b2_04463_000000268_0001_43_57_H_._HHH_b2_05280_af2_0001_0000100008_0000001_1_0001 (protein)
chain: SSSSSREETRELVRIVWRIRWEFGLSNEEAHELVELAAELLDEGVSVEEIKKLLEELAEELSSSS
B14: il2ra_site1_1z92_normal_mot_8b466c8ab6a4ea9d290724e70e8647ea_0001_000000211_0001_54_65_H_._f5bcb56c74c9f00413c49eba35dae90c_0001_af2_0001_0000200029_0000001_0_a … (protein)
chain: DPLAELKKRLEAAKSPALKVLETLEEAAKKGDKAAKYALANVERRLARGDPEAVERLLRKLGTRL
B15: il2ra_site2_2erj_sap_26_mot_HHH_b2_08311_000000155_0001_42_56_H_._HHH_b1_05305_af2_0001_0000500055_0000001_0_0001 (protein)
chain: SSSSDEELRRLFELASRLMEAIHRGDEELIEELQEEIRRLIEELNSDNAREVLEWLERHGSSSSS
B16: il2ra_site1_2b5i_normal_mot_HHH_b2_04910_000000118_0001_1_19_H_._HHH_b1_01633_0001_0000400027_0000001_0_af2pred_0001_af2pred (protein)
chain: SSSSDSREEVRELFEEANRLFKEGNPEEAEKILEEAEKLAKENNSPSLLKLIQAALREIRSSSSS
B17: il2ra_site1_3nfp_sap_15_mot_44d7d87cef3b3f1636c8b2572508b1bf_0001_1_af2_000000239_0001_37_63_H_._5336601281b50f8c34db4f7065c370c5_0001_0001_0000100002_0000001_0 … (protein)
chain: SSSSSDQEMAKRIDELLKKLAKAKSEEEREELEEELQRLAEEANSPLARWLARDIIEQVRSSSSS
B18: il2ra_site1_2b5i_normal_mot_HHH_b2_04910_000000118_0001_1_19_H_._HHH_b1_04153_0001_0000100001_0000001_0_af2pred_0001_af2pred_1 (protein)
chain: SSSSSNAAERAFELLREANELDRNGNPEEAQRVLEEALELAEEGNNKSLVRSIEAALRLVSSSSS
B19: il2ra_site2_2erj_normal_mot_HHH_b1_02757_000000121_0001_41_57_H_._HHH_b1_02256_0001_0000700046_0000001_0_af2pred_0001_af2pred (protein)
chain: SSSSSSSVEEEVKELLEQAKHIPDIREALKVLEEADRLALENDNEELLELITRVLRELSSSSSSS

Biological target: il2ra, P01589
Test: yeast display titration

Apparent Kd, inactive:
B1 no binding seen
B2 no binding seen
B3 no binding seen
B4 no binding seen
B5 no binding seen
B6 no binding seen
B7 no binding seen
B8 no binding seen
B9 no binding seen
B10 no binding seen
B11 no binding seen
B12 no binding seen
B13 no binding seen
B14 no binding seen
B15 no binding seen
B16 no binding seen
B17 no binding seen
B18 no binding seen
B19 no binding seen

Already shown: an excerpt of the list.
Apparent Kd, inactive:
B15 no binding seen
B16 no binding seen
